# Laboratory results: patent US20260007756A1, “COMPOUND AND USE THEREOF” (COHERENT BIOPHARMA (SUZHOU) LIMITED, priority 2022, published 2026)
# At least one peptide structure holds a part that was inferred or is arguable (an end, a ring closure or a residue).
# Tested on: human prostate cancer 22Rv-1 cell subcutaneous xenograft
# Assay: Pharmacodynamic assessment, 22Rv-1 xenograft model (Example 17)
# Type: in vivo, BALB/c nude male mouse
# Details: 2.87 mg/kg i.v BIW×3, day 29 after grouping
# Experimental: Objective: Pre-clinical anti-tumor effect assessment of CR202 series of compounds in BALB/c nude male mouse model with human prostate cancer 22Rv-1 cell subcutaneous xenograft.
# Procedures: 22Rv-1 (CL-00458) cells were cultured in a PRMI1640 medium containing 10% fetal bovine serum. The 22Rv-1 cells in the exponential phase were collected and resuspended in PBS to an appropriate concentration for subcutaneous tumor grafting in nude mice. The mice were subcutaneously grafted at the right back with 1×10^7 22Rv-1 cells, which were resuspended in a mixture of PBS and matrigel (1:1, 0.1 mL/mouse). The growth of the tumors was observed periodically. When the mean volume of the tumors reached 100-150 mm^3, the mice were randomized according to the tumor size. After the administration, the routine monitoring included the effect on tumor growth and the effect of treatment on the normal behavior of the animals, specifically the activity, food and water intake, weight gain or loss, the eyes, the hair, and other abnormal conditions. Clinical symptoms observed during the study were recorded in the raw data. After the administration was started, the body weight and tumor size of the mice were measured periodically. The tumor volume was calculated using the following formula: V=1/2×(a×b^2), where a and b denote the long diameter and short diameter of the tumor, respectively.
smiles,measurement,value
CC[C@@H]1C(=O)N(C)c2cnc(Nc3ccc(-c4cn([C@H]5CC[C@@H](N(CCOCCC#Cc6cccc7c6CN(C6CCC(=O)NC6=O)C7=O)C(=O)OCc6ccc(OP(=O)(O)O)c(C(=O)NCCOCCOCCOCCn7cc(C[C@H](NC(=O)[C@H](CCCCN)NC(=O)[C@H](CC(=O)O)NC(=O)[C@H](CC(=O)O)NC(=O)Cc8ccc(CNC(=O)NCCCC[C@H](NC(=O)N[C@@H](CCC(=O)O)C(=O)O)C(=O)O)cc8)C(=O)N[C@@H](CCCCNC(=O)CC[C@H](NC(=O)c8ccc(NCc9cnc%10[nH]c(N)nc(=O)c%10n9)cc8)C(=O)O)C(N)=O)nn7)c6)CC5)nn4)cc3OC)nc2N1C1CCCC1 (some centres unmarked) [CR202LB],Mean tumor volume,969.46 mm^3
same,TGI,41.29%
